The test has as its target T1, voltage dependent anion channel 2 (VDAC2) (human (endogenous in HeLa)), P45880.
T1 chain: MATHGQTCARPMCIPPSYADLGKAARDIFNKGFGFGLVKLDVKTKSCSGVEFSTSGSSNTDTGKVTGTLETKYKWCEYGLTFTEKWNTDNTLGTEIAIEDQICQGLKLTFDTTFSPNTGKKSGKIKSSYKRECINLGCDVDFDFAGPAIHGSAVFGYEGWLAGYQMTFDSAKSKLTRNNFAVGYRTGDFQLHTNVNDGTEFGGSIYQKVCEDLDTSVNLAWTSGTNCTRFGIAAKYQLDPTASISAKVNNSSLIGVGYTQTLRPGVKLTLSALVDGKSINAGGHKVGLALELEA
The test can be described thus: native gel or EMSA. To be noted: remark: other sources report otherwise. A general note: In EMSA bound probe runs differently from free probe, usually more slowly.

Results are given in words; binding and its absence hold for the method and conditions named. Some binding calls cover weakened binding; strength is not graded here. Tags and fused reporters may be left off the sequences shown.

B1: BCL-2 antagonist/killer (BAK), Q16611 1-211 (protein)
chain: MASGQGPGPPRQECGEPALPSASEEQVAQDTEEVFRSYVFYRHQQEQEAEGVAAPADPEMVTLPLQPSSTMGQVGRQLAIIGDDINRRYDSEFQTMLQHLQPTAENAYEYFTKIATSLFESGINWGRVVALLGFGYRLALHVYQHGLTGFLGQVTRFVVDFMLHHCIARWIAQRGGWVAALNLGNGPILNVLVVLGVVLLGQFVVRRFFKS
As to B1, the binding entry is reported as “binds”.

The values are drawn from doi:10.1101/2024.08.04.605933.
